# This is one part of the list. These are further read-outs of the screen, such as a control signal, another cell line or another target. No call is given for them. Most of these compounds were active or inconclusive in the main read-out, so they are no random draw. Potencies come from curve fits of mixed quality, noted in brackets.
# Experiment: qHTS Assay for Identifying the Cell-Membrane Permeable IMPase Inhibitors
# Details: CHO-M1 cells, IP1 accumulation, HTRF TR-FRET ratio; measured here: donor channel 620 nm AC50
row,SMILES,AC50
1,O=c1cc(CN2CCN(c3cccc(Cl)c3)CC2)c2cc3c(cc2o1)CCCC3,"31.6 µM [falling, single point]"
2,CCOc1cc(CNCCc2ccc(S(N)(=O)=O)cc2)ccc1OCc1ccc(Cl)cc1,"0.1 µM [falling, full curve, poor fit]"
3,COc1ccc(C(=O)Nc2nnc(Cc3cccs3)s2)cc1OC,"31.6 µM [rising, single point]"
4,CCCc1sc(N/N=C/c2ccccn2)nc1-c1ccc(F)cc1,"31.6 µM [falling, single point]"
5,COc1ccccc1N(CC(=O)N1CCC(C)CC1)S(=O)(=O)c1ccc(C)cc1,"35.5 µM [falling, single point]"
6,CC(=O)c1ccc(NC(=S)NNC(=O)c2ccncc2)cc1,"0.316 µM [falling, partial curve]"
7,COc1ccccc1N1CCN(C(c2ccc(Cl)cc2)c2nnc(-c3cccc(F)c3)o2)CC1 (configuration not stated),"5.62 µM [falling, partial curve]"
8,CCc1nnc(NCC(=O)N2CCc3ccccc32)s1,"5.01 µM [rising, partial curve, poor fit]"
9,COc1ccccc1C(=O)Nc1cc2cc(Br)ccc2oc1=O,"1 µM [falling, full curve]"
10,CCOc1c(C)cc2[nH]c(CCC(=O)O)nc2c1C,"2.51 µM [falling, partial curve, poor fit]"
11,CCOC(=O)/C(C#N)=C/c1ccc(-c2ccccc2)o1,"0.0447 µM [falling, full curve]"
12,COc1cc(C(=O)NC2CC3CCCC(C2)N3C2CC2)cc(OC)c1OC (configuration not stated),"0.158 µM [rising, full curve, poor fit]"
13,C=CCO/N=C(/C)c1c(O)c(CC)c(-c2ccccc2)n(-c2ccccc2)c1=O,"0.126 µM [falling, single point]"
14,CC(C)OC(=O)c1c(NS(=O)(=O)c2ccccc2)sc2c1CCCC2,"0.501 µM [falling, full curve, poor fit]"
15,CC1CCCN(c2nc(-c3ccccc3O)nc3ccccc23)C1 (configuration not stated),"35.5 µM [rising, single point]"
16,COC(=O)c1nn(-c2ccccc2)c(Cl)c1/C=N/OC(=O)c1ccc(Cl)c(Cl)c1,"0.316 µM [falling, full curve, poor fit]"
17,CC(=O)Nc1ccc(OC(=O)c2cc3cc(Br)ccc3oc2=O)cc1,"0.0141 µM [falling, full curve, poor fit]"
18,C=CCn1c(CCNC(=O)c2cccs2)nnc1SCC(=O)Nc1cccc(F)c1,"0.0794 µM [falling, full curve, poor fit]"
19,Cc1cc(C)c2cc(CN(CCN3CCCC3)C(=O)Nc3ccc(F)cc3)c(=O)[nH]c2c1,"5.62 µM [rising, single point]"
20,COC(=O)c1cc2sccc2n1CC(=O)N1CCCc2ccccc21,"0.398 µM [falling, partial curve, poor fit]"
21,COc1ccccc1CNC(=O)C1CCN(Cc2nc(-c3cccc(Cl)c3)oc2C)CC1,"3.98 µM [falling, partial curve, poor fit]"

row,SMILES,AC50
1,Cc1ccc(C(=O)NCCCNCCCNC(=O)c2ccc(C)nc2)cn1,"1.58 µM [falling, partial curve]"
2,Nc1c(C(=O)Nc2ccc(Cl)cc2F)sc2nc(-c3cccs3)ccc12,"35.5 µM [rising, single point]"
3,COc1ccccc1Nc1nc2c(C)cccc2cc1C#N,"3.16 µM [falling, single point]"
4,CCn1c(SCC(=O)N2CCOCC2)nc2oc3c(Cl)cc(Cl)cc3c(=O)c2c1=O,"20 µM [rising, single point]"
5,Cc1ccc(-n2c(CNc3ccc(F)cc3)nnc2SCC(=O)N2CCOCC2)cc1,"10 µM [rising, partial curve]"
6,CNc1cc(C)nc(-n2nc(C)cc2C)n1,"25.1 µM [falling, single point]"
7,CCc1ccc(OCC(=O)Nc2ncc3c(n2)CC(C)(C)CC3=O)cc1,"10 µM [falling, partial curve, poor fit]"
8,O=C(Nc1nc(=O)n(C(=O)C2CC2)s1)c1ccccc1,"3.98 µM [falling, full curve]"
9,Cc1ccc2cc(CN(Cc3cccs3)Cc3nnnn3CC3CCCO3)c(=O)[nH]c2c1 (configuration not stated),"0.00501 µM [falling, full curve, poor fit]"
10,CCOc1ccccc1NC(=O)CN1C(=O)C(=O)c2ccccc21,"0.00631 µM [rising, full curve]"
11,COCCN(C(=O)Cn1nnc2ccccc21)C(C(=O)NC1CCCC1)c1ccc(OC)cc1OC (configuration not stated),"3.55 µM [falling, full curve, poor fit]"
12,COC(=O)C(O)(CC(=O)Nc1cc(Cl)ccc1Cl)C(F)(F)F (configuration not stated),"0.02 µM [falling, full curve, poor fit]"
13,COc1ccc(N(CC(=O)Nc2ccc(S(=O)(=O)N3CCOCC3)cc2)S(=O)(=O)c2ccccc2)cc1,"3.16 µM [falling, partial curve]"
14,CCc1cccc(NC(=O)c2ccc(Br)o2)c1,"6.31 µM [falling, single point]"
15,Brc1ccc(-c2nc3ccccc3s2)s1,"15.8 µM [rising, partial curve]"
16,CC(C)(C)c1ccc(OCC(=O)NNC(=O)Cc2cccs2)cc1,"5.01 µM [rising, partial curve]"
17,NCC(O)COCCC12CC3CC(CC(C3)C1)C2 (configuration not stated),"20 µM [falling, single point]"
18,Cc1nn(C)c(C)c1N1C(=O)c2cccc3c(Br)ccc(c23)C1=O,"15.8 µM [rising, partial curve]"
19,Cc1ccc(Cc2nnc3n(-c4cccc(C)c4)nc(C(=O)c4ccccc4)n3c2=O)cc1,"0.794 µM [falling, full curve]"
20,CCNC(=O)CSc1nnc(-c2cccc(S(=O)(=O)N(CC)CC)c2)n1CCc1ccccc1,"10 µM [rising, partial curve]"
21,COc1ccc(-n2c(C)cc(/C=C3\C(=O)NN(c4ccccc4)C3=O)c2C)cc1,"17.8 µM [rising, single point]"

# Arranged by heavy-atom count (smallest number first): some entries from above.
row,SMILES,AC50
15,Brc1ccc(-c2nc3ccccc3s2)s1,"15.8 µM [rising, partial curve]"
8,O=C(Nc1nc(=O)n(C(=O)C2CC2)s1)c1ccccc1,"3.98 µM [falling, full curve]"
4,CCn1c(SCC(=O)N2CCOCC2)nc2oc3c(Cl)cc(Cl)cc3c(=O)c2c1=O,"20 µM [rising, single point]"

# From PubChem BioAssay AID901 (National Center for Advancing Translational Sciences (NCATS), 2007)
